In paper doi:10.1101/2021.10.06.463369:
Results are given in words; binding and its absence hold for the method and conditions named. Binding can be weak; no strength is given.

Biological target: PLATZ4-BD (Arabidopsis thaliana)
Assay: two-hybrid

binding: binds
B1: Di19-3 (protein, UniProt Q84J70 1-223)
chain: MDSDSWSDRLASATRRYQLAFPSRSDTFLGFEEIDGEEEFREEFACPFCSDYFDIVSLCCHIDEDHPMEAKNGVCPVCAVRVGVDMVAHITLQHANIFKMHRKRKPRRGGSYSTLSILRREFPDGNFQSLFGGSSCIVSSSSSSNVAADPLLSSFISPIADGFFTTESCISAETGPVKKTTIQCLPEQNAKKTSLSAEDHKQKLKRSEFVRELLSSTILDDSL
